Reference: the supplement of paper PMC10849652
Some of the results follow.

Amino acid sequences for entries named in this document (tags omitted). A change or cut given only in a name is not applied to a line headed by its entry.
UniProt Q9UBM1: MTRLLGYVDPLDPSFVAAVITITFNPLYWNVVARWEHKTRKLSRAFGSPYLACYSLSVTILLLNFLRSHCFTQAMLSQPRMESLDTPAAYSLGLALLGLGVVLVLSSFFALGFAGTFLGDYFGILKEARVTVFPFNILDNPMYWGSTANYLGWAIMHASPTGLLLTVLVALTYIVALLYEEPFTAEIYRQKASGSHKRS
UniProt Q9H6A9: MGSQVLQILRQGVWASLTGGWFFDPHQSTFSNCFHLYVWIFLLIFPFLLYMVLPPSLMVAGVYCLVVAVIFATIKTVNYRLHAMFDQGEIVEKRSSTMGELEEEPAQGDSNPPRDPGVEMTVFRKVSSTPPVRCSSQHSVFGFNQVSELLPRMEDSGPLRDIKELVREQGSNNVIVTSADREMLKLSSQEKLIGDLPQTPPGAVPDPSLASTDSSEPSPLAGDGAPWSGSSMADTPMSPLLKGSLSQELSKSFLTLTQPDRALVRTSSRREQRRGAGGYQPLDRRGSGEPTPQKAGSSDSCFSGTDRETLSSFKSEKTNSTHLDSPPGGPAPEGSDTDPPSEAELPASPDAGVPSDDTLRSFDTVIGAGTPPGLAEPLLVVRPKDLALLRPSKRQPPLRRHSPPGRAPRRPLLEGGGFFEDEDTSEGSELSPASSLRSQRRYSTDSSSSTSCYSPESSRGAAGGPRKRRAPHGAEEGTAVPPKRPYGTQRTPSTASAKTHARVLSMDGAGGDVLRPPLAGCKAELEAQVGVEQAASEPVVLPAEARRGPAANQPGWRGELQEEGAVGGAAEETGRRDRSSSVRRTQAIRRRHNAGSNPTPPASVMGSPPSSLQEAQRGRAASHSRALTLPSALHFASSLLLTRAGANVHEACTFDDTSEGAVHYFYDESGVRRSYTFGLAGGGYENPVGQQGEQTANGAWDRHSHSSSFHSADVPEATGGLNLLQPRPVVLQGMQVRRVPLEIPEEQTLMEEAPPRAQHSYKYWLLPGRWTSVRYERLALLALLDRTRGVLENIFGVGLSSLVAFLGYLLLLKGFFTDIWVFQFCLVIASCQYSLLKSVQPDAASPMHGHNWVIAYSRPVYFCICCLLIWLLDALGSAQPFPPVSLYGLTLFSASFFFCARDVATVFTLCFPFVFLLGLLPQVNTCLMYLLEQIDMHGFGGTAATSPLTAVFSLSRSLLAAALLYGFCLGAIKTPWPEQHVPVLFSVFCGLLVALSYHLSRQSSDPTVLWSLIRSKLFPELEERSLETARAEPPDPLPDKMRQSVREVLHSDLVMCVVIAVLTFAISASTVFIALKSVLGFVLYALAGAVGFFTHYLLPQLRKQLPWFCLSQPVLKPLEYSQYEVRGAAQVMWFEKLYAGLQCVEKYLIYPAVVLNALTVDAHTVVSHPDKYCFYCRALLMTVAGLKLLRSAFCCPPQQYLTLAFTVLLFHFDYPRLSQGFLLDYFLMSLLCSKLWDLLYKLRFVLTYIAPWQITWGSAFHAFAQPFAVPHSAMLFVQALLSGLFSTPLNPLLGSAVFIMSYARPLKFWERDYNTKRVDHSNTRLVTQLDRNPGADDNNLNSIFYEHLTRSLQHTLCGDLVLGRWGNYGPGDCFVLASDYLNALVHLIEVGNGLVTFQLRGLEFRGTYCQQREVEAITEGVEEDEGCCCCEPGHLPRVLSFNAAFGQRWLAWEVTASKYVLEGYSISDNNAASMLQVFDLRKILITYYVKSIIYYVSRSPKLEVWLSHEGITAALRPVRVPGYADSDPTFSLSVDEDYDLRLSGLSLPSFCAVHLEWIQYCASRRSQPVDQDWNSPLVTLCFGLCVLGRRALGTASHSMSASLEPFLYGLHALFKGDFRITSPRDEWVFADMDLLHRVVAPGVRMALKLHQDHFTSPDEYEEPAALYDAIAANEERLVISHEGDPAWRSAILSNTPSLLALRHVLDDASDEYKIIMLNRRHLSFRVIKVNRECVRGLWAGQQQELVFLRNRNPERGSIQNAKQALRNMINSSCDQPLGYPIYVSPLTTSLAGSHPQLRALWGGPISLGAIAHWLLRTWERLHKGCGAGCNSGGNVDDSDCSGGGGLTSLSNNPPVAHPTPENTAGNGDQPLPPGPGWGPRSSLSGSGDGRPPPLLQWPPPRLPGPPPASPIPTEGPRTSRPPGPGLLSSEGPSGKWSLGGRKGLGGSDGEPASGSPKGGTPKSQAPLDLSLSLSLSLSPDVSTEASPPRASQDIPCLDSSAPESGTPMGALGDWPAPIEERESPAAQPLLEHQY
UniProt Q8TE04: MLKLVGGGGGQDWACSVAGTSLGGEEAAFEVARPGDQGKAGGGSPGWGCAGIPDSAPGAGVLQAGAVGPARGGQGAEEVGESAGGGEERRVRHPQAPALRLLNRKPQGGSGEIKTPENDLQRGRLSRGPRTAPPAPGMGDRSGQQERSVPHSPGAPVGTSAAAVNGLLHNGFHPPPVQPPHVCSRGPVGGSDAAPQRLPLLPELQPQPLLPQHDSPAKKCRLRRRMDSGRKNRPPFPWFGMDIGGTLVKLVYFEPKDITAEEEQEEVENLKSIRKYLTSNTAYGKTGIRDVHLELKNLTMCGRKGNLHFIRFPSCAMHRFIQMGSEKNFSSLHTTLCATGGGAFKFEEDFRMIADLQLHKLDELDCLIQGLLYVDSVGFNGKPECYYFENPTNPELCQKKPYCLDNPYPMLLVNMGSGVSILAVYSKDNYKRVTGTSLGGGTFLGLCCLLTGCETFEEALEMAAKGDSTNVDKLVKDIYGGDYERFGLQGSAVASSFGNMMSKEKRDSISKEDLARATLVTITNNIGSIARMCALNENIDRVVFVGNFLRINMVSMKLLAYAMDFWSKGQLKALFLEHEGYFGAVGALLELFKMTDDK
UniProt Q8TEW0: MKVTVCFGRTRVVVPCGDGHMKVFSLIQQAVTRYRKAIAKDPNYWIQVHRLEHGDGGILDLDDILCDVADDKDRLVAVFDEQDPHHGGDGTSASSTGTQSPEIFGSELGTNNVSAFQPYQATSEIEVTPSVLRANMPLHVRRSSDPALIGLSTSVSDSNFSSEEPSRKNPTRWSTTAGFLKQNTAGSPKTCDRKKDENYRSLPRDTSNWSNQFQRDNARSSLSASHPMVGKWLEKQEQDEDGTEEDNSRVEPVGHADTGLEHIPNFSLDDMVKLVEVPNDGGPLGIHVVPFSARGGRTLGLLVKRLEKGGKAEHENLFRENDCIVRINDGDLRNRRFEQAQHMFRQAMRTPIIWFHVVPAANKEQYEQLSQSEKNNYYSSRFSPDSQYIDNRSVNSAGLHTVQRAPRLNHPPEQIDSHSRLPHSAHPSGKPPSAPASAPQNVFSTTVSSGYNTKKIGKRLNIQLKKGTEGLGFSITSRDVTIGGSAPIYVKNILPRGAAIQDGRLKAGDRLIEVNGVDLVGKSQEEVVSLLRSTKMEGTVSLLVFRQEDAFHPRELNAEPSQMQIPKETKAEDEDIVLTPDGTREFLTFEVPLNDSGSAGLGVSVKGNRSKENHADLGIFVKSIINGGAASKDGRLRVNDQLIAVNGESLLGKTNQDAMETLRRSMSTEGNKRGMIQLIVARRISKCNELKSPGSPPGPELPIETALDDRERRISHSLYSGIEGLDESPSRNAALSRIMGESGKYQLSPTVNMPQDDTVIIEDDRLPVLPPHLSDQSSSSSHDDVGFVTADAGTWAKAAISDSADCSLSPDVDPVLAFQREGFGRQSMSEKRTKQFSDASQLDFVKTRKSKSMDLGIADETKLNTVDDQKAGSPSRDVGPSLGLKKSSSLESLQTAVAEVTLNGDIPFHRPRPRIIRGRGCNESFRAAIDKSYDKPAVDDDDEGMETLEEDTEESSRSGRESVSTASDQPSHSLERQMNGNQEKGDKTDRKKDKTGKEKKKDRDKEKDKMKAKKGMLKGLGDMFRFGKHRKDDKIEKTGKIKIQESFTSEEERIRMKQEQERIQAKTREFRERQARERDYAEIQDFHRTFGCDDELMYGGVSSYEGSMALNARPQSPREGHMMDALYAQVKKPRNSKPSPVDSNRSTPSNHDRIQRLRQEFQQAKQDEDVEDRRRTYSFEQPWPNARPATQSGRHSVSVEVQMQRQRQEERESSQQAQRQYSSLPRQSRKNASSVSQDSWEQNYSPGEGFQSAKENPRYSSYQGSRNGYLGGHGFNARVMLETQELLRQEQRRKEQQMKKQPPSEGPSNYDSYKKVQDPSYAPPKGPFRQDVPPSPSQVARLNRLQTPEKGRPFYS
UniProt Q504Q3: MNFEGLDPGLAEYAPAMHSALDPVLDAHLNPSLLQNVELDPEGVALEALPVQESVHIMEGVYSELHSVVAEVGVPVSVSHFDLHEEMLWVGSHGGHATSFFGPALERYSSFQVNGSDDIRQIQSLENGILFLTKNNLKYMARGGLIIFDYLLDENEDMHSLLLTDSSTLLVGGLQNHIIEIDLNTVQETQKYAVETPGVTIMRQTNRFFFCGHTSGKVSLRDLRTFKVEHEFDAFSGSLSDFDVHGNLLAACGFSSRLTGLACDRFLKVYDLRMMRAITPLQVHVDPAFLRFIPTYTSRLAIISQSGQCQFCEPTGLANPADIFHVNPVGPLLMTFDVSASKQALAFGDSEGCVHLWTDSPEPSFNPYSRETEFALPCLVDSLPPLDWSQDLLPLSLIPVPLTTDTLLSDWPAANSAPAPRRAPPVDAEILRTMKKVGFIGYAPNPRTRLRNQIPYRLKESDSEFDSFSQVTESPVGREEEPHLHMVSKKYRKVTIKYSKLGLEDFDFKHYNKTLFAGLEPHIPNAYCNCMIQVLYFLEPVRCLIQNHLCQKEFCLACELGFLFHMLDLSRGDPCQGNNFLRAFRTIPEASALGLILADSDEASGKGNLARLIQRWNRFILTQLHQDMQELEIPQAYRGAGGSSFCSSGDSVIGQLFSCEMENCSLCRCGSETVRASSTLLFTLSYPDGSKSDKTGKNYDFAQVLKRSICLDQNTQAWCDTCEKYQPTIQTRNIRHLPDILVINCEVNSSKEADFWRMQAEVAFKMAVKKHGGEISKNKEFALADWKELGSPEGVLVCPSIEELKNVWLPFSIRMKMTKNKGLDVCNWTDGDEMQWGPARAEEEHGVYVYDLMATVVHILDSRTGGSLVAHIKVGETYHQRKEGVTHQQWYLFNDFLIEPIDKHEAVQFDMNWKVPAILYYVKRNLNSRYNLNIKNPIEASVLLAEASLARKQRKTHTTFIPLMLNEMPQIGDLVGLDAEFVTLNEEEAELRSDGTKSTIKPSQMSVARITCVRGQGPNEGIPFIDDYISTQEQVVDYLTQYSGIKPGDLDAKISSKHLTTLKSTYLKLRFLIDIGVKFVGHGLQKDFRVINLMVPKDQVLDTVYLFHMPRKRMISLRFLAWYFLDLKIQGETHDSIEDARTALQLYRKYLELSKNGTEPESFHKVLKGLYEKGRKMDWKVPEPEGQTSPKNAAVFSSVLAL

Assays:
Test in all cases: log2 fold change, soluble protein after heating vs DMSO (PISA); higher = thermal stabilisation; K562 cells, 10 uM, 30 min; active = over 0.2 and 3.5 SD of the protein, either way, in both replicates (recomputed)
tozasertib = compound: Cc1cc(Nc2cc(N3CCN(C)CC3)nc(Sc3ccc(NC(=O)C4CC4)cc3)n2)n[nH]1 [tozasertib]
How it was run: (§1)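 Aliquots of K562 cells (2×10^6 cells/mL) treated with 10 μM compound for 30 min were heated for 3 min over 48°C-58°C. After pooling and extraction in PBS with 0.5% NP-40 at 4°C, soluble protein from a 21,000xg, 90 min spin was quantified by TMTpro 16plex LC-MS/MS with channel sums equalised. Thermal stability is expressed against control samples, from duplicates, as a log2 fold change.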

tipifarnib = compound: Cn1cncc1[C@@](N)(c1ccc(Cl)cc1)c1ccc2c(c1)c(-c1cccc(Cl)c1)cc(=O)n2C [tipifarnib]
How it was run: as §1

[1] = compound: CS(=O)(=O)c1ccc(-c2cnc(N)c(C(=O)Nc3ccccc3)n2)cc1
How it was run: as §1

[2] = compound: C[C@@H]1COCCN1C2=NC(=NC(=C2)C3(CC3)S(=O)(=O)C)C4=C5C=CNC5=CC=C4
How it was run: as §1

[3] = compound: C[C@H](C1=CC=C(C=C1)C(=O)NC2=C3C=CNC3=NC=C2)N
How it was run: as §1

duvelisib = compound: C[C@H](Nc1ncnc2nc[nH]c12)c1cc2cccc(Cl)c2c(=O)n1-c1ccccc1 [duvelisib]
How it was run: as §1

gandotinib = compound: Cc1cc(Nc2cc(CN3CCOCC3)c3nc(C)c(Cc4ccc(Cl)cc4F)n3n2)n[nH]1 [gandotinib]
How it was run: as §1

[4] = compound: Cc1cc(SCc2sc(-c3ccc(C(F)(F)F)cc3)nc2C)ccc1OCC(=O)O
How it was run: as §1

ispinesib = compound: Cc1ccc(C(=O)N(CCCN)[C@@H](c2nc3cc(Cl)ccc3c(=O)n2Cc2ccccc2)C(C)C)cc1 [ispinesib]
How it was run: as §1

bafetinib = compound: Cc1ccc(NC(=O)c2ccc(CN3CC[C@H](N(C)C)C3)c(C(F)(F)F)c2)cc1Nc1nccc(-c2cncnc2)n1 [bafetinib]
How it was run: as §1

[5] = compound: Cc1cccc(CC(=O)N2CCc3c2ccc(-c2cn(C)c4ncnc(N)c24)c3F)n1
How it was run: as §1

nilotinib = compound: Cc1cn(-c2cc(NC(=O)c3ccc(C)c(Nc4nccc(-c5cccnc5)n4)c3)cc(C(F)(F)F)c2)cn1 [nilotinib]
How it was run: as §1

[6] = compound: Cc1nc(Nc2n[nH]c3c2CN(C(=O)N[C@H](CN(C)C)c2ccccc2)C3(C)C)c2sccc2n1
How it was run: as §1

dasatinib = compound: Cc1nc(Nc2ncc(C(=O)Nc3c(C)cccc3Cl)s2)cc(N2CCN(CCO)CC2)n1 [dasatinib]
How it was run: as §1

[7] = compound: Cc1ncc(-c2ccnc(Nc3ccc(S(C)(=O)=O)cc3)n2)n1C(C)C
How it was run: as §1

[8] = compound: Cn1cc(-c2ccc3c(c2)CCN3C(=O)Cc2cccc(C(F)(F)F)c2)c2c(N)ncnc21
How it was run: as §1

[9] = compound: Cn1cc(-c2ccc3nnc(C(F)(F)c4ccc5ncccc5c4)n3n2)cn1
How it was run: as §1

mubritinib = compound: FC(F)(F)c1ccc(/C=C/c2nc(COc3ccc(CCCCn4ccnn4)cc3)co2)cc1 [mubritinib]
How it was run: as §1

crizotinib = compound: C[C@@H](Oc1cc(-c2cnn(C3CCNCC3)c2)cnc1N)c1c(Cl)ccc(F)c1Cl [crizotinib]
How it was run: as §1

doramapimod = compound: Cc1ccc(-n2nc(C(C)(C)C)cc2NC(=O)Nc2ccc(OCCN3CCOCC3)c3ccccc23)cc1 [doramapimod]
How it was run: as §1

Measured: log2 fold change

PEMT isoform 2 (UniProt Q9UBM1)
inactive: tozasertib 0.077

PCYT2 (UniProt I3L1F9)
inactive: tipifarnib 0.067

PCNX3 (UniProt Q9H6A9)
inactive: tipifarnib 0.131

PANK1 (UniProt Q8TE04)
inactive: [1] 0.016 | [2] 0.074 | [3] 0.008 | duvelisib 0.222 | gandotinib -0.1 | tozasertib -0.046 | [4] -0.123 | ispinesib -0.116 | bafetinib -0.095 | [5] -0.054 | nilotinib 0 | [6] -0.094 | dasatinib 0.062 | [7] -0.009 | [8] 0.13 | [9] 0.13 | tipifarnib 0.031 | mubritinib -0.128

PARD3 (UniProt Q8TEW0)
inactive: gandotinib 0.092 | [5] -0.227 | tipifarnib -0.002

PDXP (UniProt B1AHD3)
inactive: [2] -0.277 | [3] -0.076 | [8] 0.144

PAN2 (UniProt Q504Q3)
inactive: [4] 0.299 | bafetinib -0.052 | nilotinib -0.123 | [6] -0.02 | dasatinib 0.013 | [7] -0.09

PDE4DIP (UniProt E9PS60)
inactive: crizotinib -0.225 | [3] 0.212 | doramapimod 0.102 | [8] -0.007
